From patent US20250083204A1, “CUPRIAVIDUS METALLIDURANS CML2, ITS PREPARATION, AND ITS BIOREMEDIATION METHOD FOR HEAVY METAL-CONTAMINATED ENVIRONMENT” (priority 2023, published 2025)

System: rice seedling
Assay: Cadmium accumulation in rice seedling roots and shoots
Assay type: in vivo
Details: cadmium treatment alone

[Cd+2] [Cadmium (Cd^2+), Cadmium]
cadmium content in the root: 92.29 µg/g
cadmium content in the shoot: 39.75 µg/g
